Results published in publication doi:10.1101/2022.07.25.501445.
These are yes or no findings as the source states them, for the method shown. In cells and extracts the contact can be indirect. These calls come from enrichment with a bait or labelling near it, and not all partners need be listed.

Protein sequences, listed by entry. Tags and fused reporters are not part of them.
UniProt Q9BXC0: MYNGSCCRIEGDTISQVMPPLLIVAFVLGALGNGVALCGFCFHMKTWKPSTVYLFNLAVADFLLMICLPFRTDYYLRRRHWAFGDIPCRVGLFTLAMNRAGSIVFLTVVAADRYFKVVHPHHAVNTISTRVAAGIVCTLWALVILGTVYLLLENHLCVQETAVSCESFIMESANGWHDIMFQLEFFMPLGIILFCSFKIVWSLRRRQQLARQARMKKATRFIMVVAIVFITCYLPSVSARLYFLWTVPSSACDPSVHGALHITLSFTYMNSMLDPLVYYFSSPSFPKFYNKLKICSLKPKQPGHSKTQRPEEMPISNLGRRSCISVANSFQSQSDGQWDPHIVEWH
UniProt Q9C086: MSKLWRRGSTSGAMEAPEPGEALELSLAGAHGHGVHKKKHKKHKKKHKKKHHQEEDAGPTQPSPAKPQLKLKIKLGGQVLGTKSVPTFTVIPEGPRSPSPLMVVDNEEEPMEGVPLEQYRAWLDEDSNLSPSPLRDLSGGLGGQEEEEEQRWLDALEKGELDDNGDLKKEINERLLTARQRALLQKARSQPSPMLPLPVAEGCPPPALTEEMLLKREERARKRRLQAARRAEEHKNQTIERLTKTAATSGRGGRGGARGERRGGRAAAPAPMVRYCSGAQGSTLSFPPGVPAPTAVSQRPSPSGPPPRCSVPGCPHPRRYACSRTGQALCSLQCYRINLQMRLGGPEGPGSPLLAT
UniProt Q96L73: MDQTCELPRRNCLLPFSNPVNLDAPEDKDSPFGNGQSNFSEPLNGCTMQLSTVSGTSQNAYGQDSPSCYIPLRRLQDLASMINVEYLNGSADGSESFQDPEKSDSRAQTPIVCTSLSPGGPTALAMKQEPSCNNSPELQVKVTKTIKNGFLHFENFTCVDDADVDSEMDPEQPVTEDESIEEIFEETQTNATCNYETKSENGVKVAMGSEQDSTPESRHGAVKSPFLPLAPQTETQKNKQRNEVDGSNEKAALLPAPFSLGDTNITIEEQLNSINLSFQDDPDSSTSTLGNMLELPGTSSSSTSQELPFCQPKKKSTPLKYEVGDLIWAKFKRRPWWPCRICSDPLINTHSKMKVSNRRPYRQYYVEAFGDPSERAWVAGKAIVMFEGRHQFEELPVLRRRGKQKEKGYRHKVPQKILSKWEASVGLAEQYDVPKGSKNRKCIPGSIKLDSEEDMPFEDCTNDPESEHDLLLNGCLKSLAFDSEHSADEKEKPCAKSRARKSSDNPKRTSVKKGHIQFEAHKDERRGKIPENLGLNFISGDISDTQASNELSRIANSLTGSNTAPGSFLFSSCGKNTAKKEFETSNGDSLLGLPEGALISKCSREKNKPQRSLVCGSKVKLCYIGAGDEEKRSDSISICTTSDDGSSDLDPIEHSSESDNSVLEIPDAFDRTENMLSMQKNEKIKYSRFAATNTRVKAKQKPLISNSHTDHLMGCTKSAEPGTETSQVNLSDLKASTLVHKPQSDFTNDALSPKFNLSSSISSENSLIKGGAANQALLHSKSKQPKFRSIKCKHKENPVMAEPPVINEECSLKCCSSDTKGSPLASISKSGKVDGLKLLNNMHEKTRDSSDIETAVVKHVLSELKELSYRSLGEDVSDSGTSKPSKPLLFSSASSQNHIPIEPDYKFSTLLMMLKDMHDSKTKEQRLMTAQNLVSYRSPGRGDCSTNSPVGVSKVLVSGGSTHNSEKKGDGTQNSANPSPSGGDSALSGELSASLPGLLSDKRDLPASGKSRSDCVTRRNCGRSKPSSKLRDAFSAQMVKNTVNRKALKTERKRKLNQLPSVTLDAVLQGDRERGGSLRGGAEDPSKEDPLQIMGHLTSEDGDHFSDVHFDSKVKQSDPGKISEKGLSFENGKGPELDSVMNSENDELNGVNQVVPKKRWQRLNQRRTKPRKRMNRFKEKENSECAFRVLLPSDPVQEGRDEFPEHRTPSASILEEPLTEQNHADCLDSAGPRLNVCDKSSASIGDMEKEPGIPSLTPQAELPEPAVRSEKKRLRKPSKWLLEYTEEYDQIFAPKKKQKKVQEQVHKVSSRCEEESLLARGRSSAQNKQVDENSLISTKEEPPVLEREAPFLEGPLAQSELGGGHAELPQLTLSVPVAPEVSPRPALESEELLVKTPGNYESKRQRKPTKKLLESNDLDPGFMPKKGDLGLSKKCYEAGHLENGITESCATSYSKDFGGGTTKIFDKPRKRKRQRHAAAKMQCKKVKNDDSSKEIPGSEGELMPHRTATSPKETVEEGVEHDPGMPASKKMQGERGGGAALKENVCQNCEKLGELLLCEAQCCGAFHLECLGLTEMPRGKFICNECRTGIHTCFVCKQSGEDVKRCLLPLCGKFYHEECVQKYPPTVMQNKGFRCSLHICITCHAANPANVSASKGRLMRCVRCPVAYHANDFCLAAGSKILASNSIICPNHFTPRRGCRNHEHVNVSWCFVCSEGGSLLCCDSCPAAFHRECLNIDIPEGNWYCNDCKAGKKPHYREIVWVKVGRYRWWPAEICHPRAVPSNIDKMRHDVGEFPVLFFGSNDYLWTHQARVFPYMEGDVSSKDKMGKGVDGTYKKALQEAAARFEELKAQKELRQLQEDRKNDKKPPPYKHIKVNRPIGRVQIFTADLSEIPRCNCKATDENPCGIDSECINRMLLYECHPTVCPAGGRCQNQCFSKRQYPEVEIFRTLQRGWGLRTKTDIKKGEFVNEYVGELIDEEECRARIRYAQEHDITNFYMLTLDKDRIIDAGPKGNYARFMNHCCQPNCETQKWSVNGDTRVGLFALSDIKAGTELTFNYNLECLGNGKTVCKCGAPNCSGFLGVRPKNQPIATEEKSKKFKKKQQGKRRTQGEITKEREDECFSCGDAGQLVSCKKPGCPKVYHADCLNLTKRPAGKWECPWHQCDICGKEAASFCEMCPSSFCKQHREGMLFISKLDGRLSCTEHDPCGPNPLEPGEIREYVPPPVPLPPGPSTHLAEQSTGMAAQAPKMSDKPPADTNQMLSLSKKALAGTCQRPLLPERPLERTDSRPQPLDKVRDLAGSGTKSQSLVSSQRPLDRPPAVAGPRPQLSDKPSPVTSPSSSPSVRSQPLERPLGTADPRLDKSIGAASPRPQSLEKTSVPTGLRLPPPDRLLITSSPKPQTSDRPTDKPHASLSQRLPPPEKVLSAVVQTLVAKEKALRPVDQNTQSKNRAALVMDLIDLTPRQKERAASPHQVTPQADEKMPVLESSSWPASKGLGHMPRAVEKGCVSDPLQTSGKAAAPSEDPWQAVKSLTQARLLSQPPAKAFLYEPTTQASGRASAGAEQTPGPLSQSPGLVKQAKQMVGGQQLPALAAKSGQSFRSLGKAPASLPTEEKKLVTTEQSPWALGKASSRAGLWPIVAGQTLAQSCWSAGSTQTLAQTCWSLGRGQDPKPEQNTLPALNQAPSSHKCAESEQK
UniProt O60264: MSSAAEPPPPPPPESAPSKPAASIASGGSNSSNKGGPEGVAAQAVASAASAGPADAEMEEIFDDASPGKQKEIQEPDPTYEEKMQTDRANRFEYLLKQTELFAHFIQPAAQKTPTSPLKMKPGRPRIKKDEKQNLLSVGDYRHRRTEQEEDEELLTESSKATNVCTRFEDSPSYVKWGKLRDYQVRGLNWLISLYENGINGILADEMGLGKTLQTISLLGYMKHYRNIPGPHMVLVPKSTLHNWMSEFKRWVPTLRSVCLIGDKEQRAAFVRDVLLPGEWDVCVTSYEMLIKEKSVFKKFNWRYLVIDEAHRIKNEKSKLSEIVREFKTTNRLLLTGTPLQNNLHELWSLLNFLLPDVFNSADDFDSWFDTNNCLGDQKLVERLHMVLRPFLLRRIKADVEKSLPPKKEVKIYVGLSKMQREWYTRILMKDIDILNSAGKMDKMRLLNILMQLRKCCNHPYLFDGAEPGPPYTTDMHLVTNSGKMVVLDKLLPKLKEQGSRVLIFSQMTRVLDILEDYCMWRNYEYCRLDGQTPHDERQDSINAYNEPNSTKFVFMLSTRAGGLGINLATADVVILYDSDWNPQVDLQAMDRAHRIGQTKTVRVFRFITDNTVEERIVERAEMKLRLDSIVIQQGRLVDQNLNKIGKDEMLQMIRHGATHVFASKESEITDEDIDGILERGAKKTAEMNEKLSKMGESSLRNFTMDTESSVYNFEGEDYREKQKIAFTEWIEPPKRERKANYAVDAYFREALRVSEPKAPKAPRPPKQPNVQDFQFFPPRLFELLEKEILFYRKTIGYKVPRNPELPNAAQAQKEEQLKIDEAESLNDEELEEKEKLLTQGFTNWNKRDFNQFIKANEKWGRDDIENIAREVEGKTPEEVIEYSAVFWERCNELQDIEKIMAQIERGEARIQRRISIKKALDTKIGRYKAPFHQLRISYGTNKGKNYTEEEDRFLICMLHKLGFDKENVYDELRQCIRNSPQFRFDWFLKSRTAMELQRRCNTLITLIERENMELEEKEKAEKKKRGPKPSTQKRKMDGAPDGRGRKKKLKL
UniProt Q92922: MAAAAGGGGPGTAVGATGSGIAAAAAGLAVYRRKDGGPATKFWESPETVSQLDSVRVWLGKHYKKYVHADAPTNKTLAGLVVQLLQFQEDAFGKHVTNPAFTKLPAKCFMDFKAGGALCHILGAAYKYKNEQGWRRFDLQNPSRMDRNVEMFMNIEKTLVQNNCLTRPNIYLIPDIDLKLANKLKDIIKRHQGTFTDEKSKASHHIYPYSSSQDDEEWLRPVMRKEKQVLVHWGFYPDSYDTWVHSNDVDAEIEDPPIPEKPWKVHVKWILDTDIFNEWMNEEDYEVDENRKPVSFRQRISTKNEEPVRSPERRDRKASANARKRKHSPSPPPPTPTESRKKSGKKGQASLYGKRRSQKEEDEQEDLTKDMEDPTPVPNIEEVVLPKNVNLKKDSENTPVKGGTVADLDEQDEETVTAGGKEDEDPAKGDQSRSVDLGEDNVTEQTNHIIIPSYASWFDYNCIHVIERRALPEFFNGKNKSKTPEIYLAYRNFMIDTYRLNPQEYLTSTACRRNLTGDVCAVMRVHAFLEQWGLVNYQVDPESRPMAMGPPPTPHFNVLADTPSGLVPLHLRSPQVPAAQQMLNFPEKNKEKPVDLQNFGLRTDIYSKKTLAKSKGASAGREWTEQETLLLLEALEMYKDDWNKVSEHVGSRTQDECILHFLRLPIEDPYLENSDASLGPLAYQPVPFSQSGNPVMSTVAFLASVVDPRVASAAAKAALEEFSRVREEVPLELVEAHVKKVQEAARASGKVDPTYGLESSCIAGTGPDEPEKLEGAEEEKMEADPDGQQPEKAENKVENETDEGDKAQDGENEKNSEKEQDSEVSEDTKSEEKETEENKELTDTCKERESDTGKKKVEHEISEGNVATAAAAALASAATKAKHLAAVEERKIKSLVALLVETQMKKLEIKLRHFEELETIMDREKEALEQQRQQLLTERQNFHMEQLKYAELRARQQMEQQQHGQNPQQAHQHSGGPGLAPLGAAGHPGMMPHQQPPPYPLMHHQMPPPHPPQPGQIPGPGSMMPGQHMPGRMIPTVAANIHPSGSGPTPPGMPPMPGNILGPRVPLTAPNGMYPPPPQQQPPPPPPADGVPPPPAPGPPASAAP

target: HCAR1-BioID2-HA fusion protein (hydroxycarboxylic acid receptor 1 in the MCS-13X Linker-BioID2-HA vector) (human) (UniProt Q9BXC0); assay: proximity labelling

Substance | binding
INO80b (from UniProt Q9C086 1-356) | binds
NSD1 (from UniProt Q96L73 1-2696) (enzyme) | binds
SMARCA5 (from UniProt O60264 1-1052) | binds
SMARCC1 (from UniProt Q92922 1-1105) | binds
